Laboratory results reported in PubChem BioAssay AID1347075 (National Center for Advancing Translational Sciences (NCATS), 2019).
In all, about 400,000 compounds went through this assay and about 5,500 (1.4%) were called active. This list was built around the results that the source calls inconclusive (neither active nor inactive); the mix of calls is not that of the screen. Calls follow the shape of the dose curve; as a rule, active = well fitted cell-killing curve with a large enough effect; inconclusive = small, poorly fitted or top-dose-only effect, or effect the other way; inactive = flat fitted curve, though single readings scatter. Potencies beside an inconclusive call are fits to weak or partial responses and may not hold up.

assay: qHTS assay for MDR1-selective chemotherapeutics: Primary screen using the parental adenocarcinoma cell KB-3-1; details: KB-3-1 viability, CellTiter-Glo ATP luminescence, 72 h; activity change, negative = cytotoxic: at 46.1 µM (top of the series); also: nearly all actives have a fitted effect of over 60% in size
Procedure, shortened: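 Multi-concentration cytotoxicity screen in KB-3-1 cells grown in DMEM lacking phenol red with 10% FBS. After 72 h at 37 °C with compound, ATP-dependent luminescence was recorded.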
% is scaled to controls: 0 for no effect and ±100 for the full control effect; potency is read from the fitted curve at half-maximal effect.

| SMILES | Potency | activity change, negative = cytotoxic |
| --- | --- | --- |
| CC(=O)c1c(C)[nH]c(C(=O)Nc2ccc(Cl)c(S(=O)(=O)N3CCOCC3)c2)c1C | inconclusive: 29.1 µM [cytotoxic, single point] |  |
| COc1ccc(C2=NOC(C(=O)NCc3cccnc3)C2)cc1OC (centres undefined) | inconclusive: 29.1 µM [cytotoxic, single point] |  |
| CCOc1ccccc1-c1nc(-c2cc3ccc(C)cc3[nH]c2=O)no1 | inactive |  |
| CCOCCn1c(COc2ccc(C)cc2)nc2ccccc21 | inconclusive: 29.1 µM [cytotoxic, single point] |  |
| BrC(=C\c1ccccc1)/C=N/N1CCN(Cc2ccccc2)CC1 | inconclusive: 29.1 µM [cytotoxic, single point] |  |
| Clc1ccc(C2=NNC(=NCc3ccc4c(c3)OCO4)SC2)cc1 | inconclusive: 29.1 µM [cytotoxic, single point] |  |
| Cc1ccc(-c2cc(-c3ccco3)c3c(N)c(C(=O)NN)oc3n2)cc1 | inconclusive: 32.6 µM [cytotoxic, partial curve, poor fit] |  |
| CCc1nnc(NS(=O)(=O)c2ccc(NC(=S)NC(=O)/C=C/c3ccccc3)cc2)s1 | inactive |  |
| CC(=O)Oc1ccc(Cn2c(C)c(C(=O)NC3CC3)sc2=O)cc1 | inactive |  |
| COC(=O)c1ccc2nc(-c3ccc(F)cc3)c(Cc3cccc(F)c3)n2c1 | inconclusive: 23.1 µM [cytotoxic, single point] |  |
| O=C(CCc1nc2ccccc2c(=O)[nH]1)Nc1cc(C(F)(F)F)ccc1N1CCOCC1 | inconclusive: 29.1 µM [cytotoxic, single point] |  |
| Fc1ccc(-c2nc3c(-c4ccc(Cl)cc4)cnn3cc2CCN2CCOCC2)cc1 | inactive |  |
| C/C(=N\NC(=O)C(C)Oc1ccc([N+](=O)[O-])cc1)c1ccccn1 (centres undefined) | active: 8.2 µM |  |
| COc1ccc(-c2nnc(SCCC(=O)O)n2-c2ccccc2)cc1 | active: 18.4 µM |  |
| COc1ccc(N(C)S(=O)(=O)c2ccc3c(c2)CCN3C(=O)C2CC2)c(OC)c1 | inconclusive: 23.1 µM [cytotoxic, single point] |  |
| COc1cc(/C=C\C(=O)OCn2nnc3ccccc3c2=O)cc(OC)c1OC |  | inconclusive: 0% |
| CC(C)(C)c1ccc(C(O)c2ncc(-c3cccc(F)c3)[nH]2)cc1 (centres undefined) | inconclusive: 29.1 µM [cytotoxic, partial curve, poor fit] |  |
| CCOC(=O)N1CCC(NC(=O)c2ccc3c(c2)N(Cc2ccccc2)CCS3)CC1 | inconclusive: 20.6 µM [cytotoxic, single point] |  |
| CCCCN(CCCC)c1ccc(Cn2ccc3ccccc32)cc1 | inconclusive: 29.1 µM [cytotoxic, single point] |  |
| CCOC(=O)c1ccc(NC(=O)C2CC(=O)N(c3ccc4c(c3)OCCO4)C2)cc1 (centres undefined) | inconclusive: 29.1 µM [rising, single point] |  |
| COc1ccc(OCCCC(=O)Nc2nc(-c3ccccn3)cs2)cc1 | inconclusive: 16.4 µM [cytotoxic, single point] |  |
| CC(O)COc1ccc(/C(=N/O)c2ccccc2)cc1 (centres undefined) | inactive |  |

Whole records from above.
COc1ccc(C2=NOC(C(=O)NCc3cccnc3)C2)cc1OC (centres undefined) in the list: Potency: inconclusive: 29.1 µM [cytotoxic, single point]
CCOC(=O)N1CCC(NC(=O)c2ccc3c(c2)N(Cc2ccccc2)CCS3)CC1 in the list: Potency: inconclusive: 20.6 µM [cytotoxic, single point]

Following part:

| SMILES | Potency | activity change, negative = cytotoxic |
| --- | --- | --- |
| CC(C)NC(=O)c1ccc2c(=O)n(CC3CCCO3)c(=S)[nH]c2c1 (centres undefined) | inactive |  |
| CC1(C)C(c2ccccn2)=[N+]([O-])C(C)(C)N1O | inactive |  |
| CNC(=O)C1CC(=O)N(CCCc2ccccc2)C(=Nc2ccccc2)S1 (centres undefined) | inactive |  |
| O=C(O)C1CC=CCC1C(=O)Nc1ccc(S(=O)(=O)N2CCCc3ccccc32)cc1 (centres undefined) | inconclusive: 25.9 µM [cytotoxic, single point] |  |
| Cn1cc(CCNC(=O)CC2C(=O)NCCN2Cc2cccc(Oc3ccccc3)c2)cn1 (centres undefined) | inconclusive: 9.2 µM [cytotoxic, partial curve, poor fit] |  |
| CC(=O)Nc1ccc(-c2ccnc3c2CC(C)(C(=O)NCc2ccc(N(C)C)cc2)O3)cc1 (centres undefined) | inconclusive: 0.0058 µM [cytotoxic, full curve, poor fit] |  |
| COc1cc(O)c(C(CC(=O)N2CCC(c3ccccc3)CC2)c2ccc(OC)c(OC)c2)c(OC)c1 (centres undefined) | inconclusive: 63.1 µM [cytotoxic, single point] |  |
| COc1cc2c(cc1OC)C(Cc1ccccc1[N+](=O)[O-])=NCC2 | inconclusive: 18.4 µM [rising, single point] |  |
| CCCN(CC(=O)Nc1ccc(F)c(F)c1F)C(=O)Cn1c(=O)cnc2ccccc21 | inactive |  |
| Cc1ccc(F)c(S(=O)(=O)NC(=O)C2(C)CCN2C(=O)CC(c2ccccc2)c2ccccc2)c1 (centres undefined) | inactive |  |
| Cc1cccc(C(=O)NCC(=O)N2CCCCCCC2)c1 | inactive |  |
| CC1(C(=O)NCc2cccc(Cl)c2)Cc2c(-c3ccc(C(N)=O)cc3)ccnc2O1 (centres undefined) | inconclusive: 29.1 µM [cytotoxic, single point] |  |
| CCOc1ccc(CCNC(=O)CCNS(=O)(=O)c2ccc3c(c2)CCN3C(C)=O)cc1OCC | inactive |  |
| CC1CCN(C(=S)NC(=O)c2ccc(C(C)(C)C)cc2)CC1 | inconclusive: 29.1 µM [cytotoxic, single point] |  |
| CN(Cc1c(C(=O)N/N=C/c2cc(F)ccc2F)nnn1-c1nonc1N)C1CCCCC1 | inactive |  |
| CCn1c(SCC(=O)N/N=C/c2c[nH]c3ccccc23)nnc1-c1ccc(Cl)cc1 | inconclusive: 32.6 µM [cytotoxic, single point] |  |
| Cc1cc(C(=O)Nc2c(C)nn(Cc3ccc(F)cc3)c2C)on1 | inactive |  |
| O=C(/C=C/c1ccco1)Nc1nnc(-c2ccco2)s1 | inconclusive: 2.31 µM [cytotoxic, partial curve, poor fit] |  |
| O=C1NC[C@@H](c2ccccc2)OC(=O)[C@@H](Cc2ccc(F)cc2)CC/C=C/C[C@H]1CC(=O)N(CCO)Cc1ccccc1 | inconclusive: 20.6 µM [cytotoxic, single point] |  |
| O=C(Nc1ccc(O)cc1)c1ccc(NC(=O)c2cccs2)cc1 | active: 18.4 µM |  |
| O=C(Nc1cccc(-n2cnnn2)c1)c1ccncc1 | inconclusive: 7.31 µM [cytotoxic, full curve, poor fit] |  |
| Cc1ccn2c(=O)c(NC(=O)c3cccc([N+](=O)[O-])c3C)c(C)nc2c1 | inconclusive: 29.1 µM [cytotoxic, single point] |  |
